# Measurements reported in the supplement of paper PMC4635364.
# Structures can show the parent of a compound that is named as a salt. The list shows a part of the results. Repeats in this data set agree poorly, so a single value says little.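 ReNCell VM, a human fetal ventral-midbrain neural progenitor line, was differentiated without mitogens. Blinded raters scored images stained for doublecortin (early neurons) or tyrosine hydroxylase (dopaminergic neurons) against untreated wells (0 = no change). Scores were averaged across repeats and both raters, and compounds averaging 2 or more were selected as hits for retesting.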
# Assays:
# ReNCell VM [1] = experiment: neuronal differentiation score (DCX+ cell fraction vs untreated, manual image score) (score (-3 to 3)); higher = more neuronal differentiation; conditions: 2 uM, 2 weeks
# ReNCell VM [2] = experiment: dopaminergic neuron differentiation score (TH+ cell fraction vs untreated, manual image score) (score (0 to 3)); higher = more TH+ dopaminergic neuron differentiation; conditions: 2 uM, 4 weeks, BDNF 10 ng/ml + GDNF 10 ng/ml
smiles,measurement,setting,value
Cc1c(C(=O)NC2CCCCC2)sc2nc3ccc(N)cc3n12,neuronal differentiation score,ReNCell VM [1]; library: Tocriscreen,inactive: 0
same,dopaminergic neuron differentiation score,ReNCell VM [2]; library: Tocriscreen,inactive: 0
Cc1ncc(CO)c(CO)c1O [Pyridoxine hydrochloride],neuronal differentiation score,ReNCell VM [1]; library: Prestwick,inactive: 0
same,dopaminergic neuron differentiation score,ReNCell VM [2]; library: Prestwick,inactive: 0
C[C@]12CCC3c4ccc(OS(=O)(=O)O)cc4CCC3C1CC[C@H]2O (stereo not given in full),neuronal differentiation score,ReNCell VM [1]; library: Spectrum,inactive: 0
same,dopaminergic neuron differentiation score,ReNCell VM [2]; library: Spectrum,inactive: 0
COc1ccc(C(=O)NCc2cccnc2)cc1C(=O)NCc1cccnc1 [Picotamide monohydrate],neuronal differentiation score,ReNCell VM [1]; library: Prestwick,inactive: 0
same,dopaminergic neuron differentiation score,ReNCell VM [2]; library: Prestwick,inactive: 0
CCCNC(C)(C)COC(=O)c1ccccc1 [Meprylcaine hydrochloride],neuronal differentiation score,ReNCell VM [1]; library: Prestwick,inactive: 0
same,dopaminergic neuron differentiation score,ReNCell VM [2]; library: Prestwick,inactive: 0
CC(C)(CO)C(O)C(=O)NCCCO (stereo not given),neuronal differentiation score,ReNCell VM [1]; library: Spectrum,inactive: 0
same,dopaminergic neuron differentiation score,ReNCell VM [2]; library: Spectrum,inactive: 0
N=C(N)NS(=O)(=O)c1ccc(N)cc1,neuronal differentiation score,ReNCell VM [1]; library: Spectrum,inactive: 0
same,dopaminergic neuron differentiation score,ReNCell VM [2]; library: Spectrum,inactive: 0
C#C[C@]1(O)CC[C@H]2[C@@H]3CCC4=C(CCC(=O)C4)[C@H]3CC[C@@]21C [Norethynodrel],neuronal differentiation score,ReNCell VM [1]; library: Prestwick,inactive: 0
same,dopaminergic neuron differentiation score,ReNCell VM [2]; library: Prestwick,inactive: 0
CC[C@@H](CC[C@@H](C)[C@H]1CC[C@H]2[C@@H]3CCC4C[C@@H](O)CC[C@]4(C)[C@H]3CC[C@]12C)C(C)C (stereo partly drawn) [Beta-sistosterol],neuronal differentiation score,ReNCell VM [1]; library: Phytochemical,inactive: -1
same,dopaminergic neuron differentiation score,ReNCell VM [2]; library: Phytochemical,inactive: 0
Oc1cccc2[nH]ccc12,neuronal differentiation score,ReNCell VM [1]; library: Spectrum,inactive: 0
same,dopaminergic neuron differentiation score,ReNCell VM [2]; library: Spectrum,inactive: 0
CC(C)[C@H](CO)Nc1nc(Nc2ccc(C(=O)O)c(Cl)c2)c2ncn(C(C)C)c2n1 [Purvalanol B],neuronal differentiation score,ReNCell VM [1]; library: Tocriscreen,inactive: 0
same,dopaminergic neuron differentiation score,ReNCell VM [2]; library: Tocriscreen,inactive: 0
COc1ccc2cc3[n+](cc2c1OC)CCc1cc2c(cc1-3)OCO2 [Berberine chloride],neuronal differentiation score,ReNCell VM [1]; library: Phytochemical,inactive: 0
same,dopaminergic neuron differentiation score,ReNCell VM [2]; library: Phytochemical,inactive: 0
NC1CCN(c2c(F)cc3c(=O)c(C(=O)O)cn(C4CC4)c3c2Cl)C1 (stereo not given),neuronal differentiation score,ReNCell VM [1]; library: Spectrum,inactive: 0
same,dopaminergic neuron differentiation score,ReNCell VM [2]; library: Spectrum,inactive: 0
COc1cc2cc3c4cc(OC)c(OC)cc4cc[n+]3c(C)c2cc1OC [Coralyne chloride hydrate],neuronal differentiation score,ReNCell VM [1]; library: Phytochemical,inactive: 0
same,dopaminergic neuron differentiation score,ReNCell VM [2]; library: Phytochemical,inactive: 0
CCN(CC)CCCC(C)Nc1c2ccc(Cl)cc2nc2ccc(OC)cc12 (stereo not given),neuronal differentiation score,ReNCell VM [1]; library: Spectrum,inactive: 0
same,dopaminergic neuron differentiation score,ReNCell VM [2]; library: Spectrum,inactive: 0
O=C1c2ccccc2C(=O)C1c1ccccc1,neuronal differentiation score,ReNCell VM [1]; library: Spectrum,inactive: 0
same,dopaminergic neuron differentiation score,ReNCell VM [2]; library: Spectrum,inactive: 0
C[N+](C)(CCOc1ccccc1)Cc1ccccc1.O=C([O-])c1cc2ccccc2cc1O [Bephenium hydroxynaphthoate],neuronal differentiation score,ReNCell VM [1]; library: Prestwick,inactive: 0
same,dopaminergic neuron differentiation score,ReNCell VM [2]; library: Prestwick,inactive: 0
C=CC[C@H](N)C(=O)O [L-allylglycine],neuronal differentiation score,ReNCell VM [1]; library: LOPAC,inactive: 0
same,dopaminergic neuron differentiation score,ReNCell VM [2]; library: LOPAC,inactive: 0
CC(=O)c1cc2ccccc2oc1=O,neuronal differentiation score,ReNCell VM [1]; library: Spectrum,inactive: 0
same,dopaminergic neuron differentiation score,ReNCell VM [2]; library: Spectrum,inactive: 0
CC(=O)N(CC(O)CO)c1c(I)c(C(=O)NCCO)c(I)c(C(=O)NCC(O)CO)c1I (stereo not given),neuronal differentiation score,ReNCell VM [1]; library: Spectrum,inactive: 0
same,dopaminergic neuron differentiation score,ReNCell VM [2]; library: Spectrum,inactive: 0

# A different layout for some results above:
smiles	measurement	setting	value
CCN(CC)CCCC(C)Nc1c2ccc(Cl)cc2nc2ccc(OC)cc12 (stereo not given)	dopaminergic neuron differentiation score	ReNCell VM [2]; library: Spectrum	inactive: 0
O=C1c2ccccc2C(=O)C1c1ccccc1	neuronal differentiation score	ReNCell VM [1]; library: Spectrum	inactive: 0
